According to PubChem BioAssay AID1347076 (National Center for Advancing Translational Sciences (NCATS), 2019):
Among all 400,000 compounds or so, about 13,000 (3.2%) were called active. Inconclusive means that the source gave no clear call. Such entries were picked first, then a sample of the others. Calls come from the whole dose curve; as a rule, active = well fitted cell-killing curve with a large enough effect; inconclusive = small, poorly fitted or top-dose-only effect, or effect the other way; inactive = flat fitted curve, though single readings scatter. A potency beside an inconclusive call is a rough fit, not a confirmed value.

Assay: qHTS assay for MDR1-selective chemotherapeutics: Primary screen using the drug-selected MDR subline cells KB-V1; note: nearly all actives have a fitted effect of over 60% in size
Conditions: KB-V1 MDR cells viability, CellTiter-Glo, 72 h; series mostly up to 46.1 µM
Method in brief: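 Cytotoxicity via CellTiter-Glo luminescence after 72 h compound exposure at 37 degrees C. Cells: drug-selected KB-V1 line, DMEM phenol-red free plus 10% FBS. Compounds tested at multiple concentrations; normalized data fitted to concentration-effect curves.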
Potency is the fitted concentration of half-maximal effect.

Structure (SMILES)	Potency
CCCCCCCCCCS(=O)(=O)N/N=C/c1ccccc1OC	inactive
O=C(NC1CCCCC1)c1ccccc1NC(=S)NC(=O)C1CC1	inconclusive: 14.6 µM [cytotoxic, partial curve]
CCOc1ccc(N(CC(=O)N2CCN(C(=O)CN(c3ccc(OCC)cc3)S(C)(=O)=O)CC2)S(C)(=O)=O)cc1	inactive
Cc1ccccc1NC(=O)c1[nH]cnc1C(=O)NN	inactive
COC(=O)c1sc(-c2ccc(C(C)(C)C)cc2)cc1NC(=O)CSCC(=O)O	inconclusive: 29.1 µM [rising, single point]
Cc1cc(C)c(C(=O)CC(=O)c2ccccc2Cl)c(O)c1	inconclusive: 5.17 µM [cytotoxic, full curve, poor fit]
COc1cnc(-c2ccccn2)nc1Sc1ccc(Cl)cc1	inconclusive: 8.2 µM [cytotoxic, partial curve, poor fit]
O=C(NCC(c1cccs1)N1CCOCC1)c1ccco1 (stereo unspecified)	inconclusive: 29.1 µM [cytotoxic, single point]
COC(=O)C1=C(C)N(CCc2c[nH]c3ccccc23)C(=O)C1	inconclusive: 29.1 µM [cytotoxic, single point]
COc1cc(C)ccc1OCC(=O)OCC(=O)NCC1CCCCC1	inconclusive: 29.1 µM [rising, partial curve, poor fit]
CCCCOC(=O)Nc1ccc(C)c(Cl)c1	inconclusive: 2.31 µM [rising, partial curve, poor fit]
CC(C)CNC(=O)CCSc1nc(-c2ccc3c(c2)OCO3)cc(C(F)(F)F)n1	inconclusive: 2.59 µM [cytotoxic, full curve]
Cc1ccc(-c2cc(C(=O)N/N=C/c3ccco3)n[nH]2)s1	inconclusive: 29.1 µM [cytotoxic, single point]
O=C(CCN1C(=O)/C(=C\c2ccccc2)SC1=S)NCCCN1CCOCC1	inconclusive: 29.1 µM [rising, partial curve, poor fit]
CC(=O)CSc1ncnc2sc3c(c12)CCCC3	inactive
COc1ccc(NC(=O)c2cccc3c(-c4cnn(C)c4)coc23)cc1	inactive
CC(=O)Nc1c(Cl)cc2c(c1Cl)Cc1cc(C#N)ccc1-2	active: 0.92 µM
Cc1cccc(NC(=O)C2CCCN(c3cnccn3)C2)c1 (stereo unspecified)	inactive
COCCNC(=O)C(=O)Nc1ccc2c(c1)N(S(=O)(=O)c1cccs1)CCC2	inconclusive: 1.64 µM [cytotoxic, partial curve, poor fit]
COc1ccccc1NC(=O)N1CCCC1C(=O)Nc1ccc2c(c1)OCCO2 (stereo unspecified)	inactive
CC1CC(C)CN(S(=O)(=O)CCNC(=O)c2ccc3c(c2)OCO3)C1 (stereo unspecified)	inactive
CCN(C[C@H]1N[C@@](Cc2ccccc2)(C(=O)OC)[C@H]2C(=O)N(Cc3ccccc3)C(=O)[C@@H]12)S(=O)(=O)c1ccc(C(C)(C)C)cc1	inactive
OC(CNCCc1ccc(Cl)cc1)COCc1ccco1 (stereo unspecified)	inconclusive: 18.4 µM [cytotoxic, partial curve, poor fit]
O=C(NNc1ccccc1)c1ccc(Cl)c(Cl)c1	active: 18.4 µM

Structure (SMILES)	Potency
Cc1cc(NCCC(C)C)n2nc(C)c(-c3ccccc3)c2n1	active: 20.6 µM
CSC(=CC(=O)c1ccccc1)SC	inconclusive: 23.1 µM [cytotoxic, single point]
Cc1ccc(NC(=O)c2ccc(S(=O)(=O)NCc3cccnc3)cc2)c(C)c1	inactive
COc1cc(CC(=O)N2c3ccccc3N=C(c3ccccc3)C2C(=O)NCc2ccccc2)cc(OC)c1 (stereo unspecified)	inconclusive: 6.51 µM [cytotoxic, partial curve]
NC1=C(Br)C(=O)c2ccccc2C1=O	active: 11.6 µM
CC(NC(=O)c1ccc2nc(Cc3cccc(Cl)c3)oc2c1)c1ccncn1 (stereo unspecified)	inconclusive: 8.2 µM [cytotoxic, partial curve]
COc1cccc(OCc2cc(/C=N/NC(=O)c3ccn[nH]3)ccc2OC)c1	inconclusive: 29.1 µM [cytotoxic, single point]
CN(C1CCCCC1)S(=O)(=O)c1ccc(C(=O)N2CCN(c3nc4ccccc4s3)CC2)cc1	active: 2.59 µM
O=C1CCCN1CCCNCC(=O)N1c2ccccc2Sc2ccccc21	inactive
Cc1cccc(N2CN(S(=O)(=O)c3cccc([N+](=O)[O-])c3)c3nc4ccccc4nc32)c1	inactive
COc1cccc(OC)c1Nc1nc(C)nc2c1nnn2Cc1ccccc1Cl	inconclusive: 5.8 µM [cytotoxic, partial curve]
Cc1nc(N2CCN(Cc3ccc4c(c3)OCO4)CC2)c2oc3ccccc3c2n1	inconclusive: 9.2 µM [cytotoxic, partial curve, poor fit]
CCC(=O)Nc1ccc(C(=O)Nc2cccc(OC)c2)cc1	inconclusive: 18.4 µM [cytotoxic, single point]
CCOC(=O)C1CCCN(C(=O)c2cc(-c3ccc(C)cc3)nc3ccccc23)C1 (stereo unspecified)	active: 11.6 µM
Cc1cc2nc(C3CCCN(C(=S)Nc4ccccc4C)C3)[nH]c2cc1C (stereo unspecified)	inconclusive: 23.1 µM [cytotoxic, partial curve, poor fit]
C[C@H](NC(=O)c1ncn2c1C(=O)NC[C@H]2C)c1ccccc1	inactive
CC1CC1C(=O)Nc1nc(-c2ccc(Cl)s2)cs1 (stereo unspecified)	active: 13 µM
Cc1ccc(C2C(C(=O)c3cc4ccccc4o3)=C(O)C(=O)N2CCN2CCOCC2)o1 (stereo unspecified)	inactive
O=[N+]([O-])c1cc(Cl)ccc1NCCNc1ncc(C(F)(F)F)cc1Cl	inconclusive: 20.6 µM [cytotoxic, single point]
O=C1NCCOC(=O)[C@@H](Cc2ccc(F)cc2)CC/C=C/C[C@@H]1CC(=O)N(CCO)Cc1ccccc1	inconclusive: 0.92 µM [rising, full curve, poor fit]
C=CCn1c(SCC(=O)NC(=O)Cc2ccccc2)nnc1-c1ccccc1F	inactive
CC(C)(C)OC(=O)[C@H](Cc1ccccc1)NC(=O)c1[nH]cnc1C(=O)Nc1ccccc1F	active: 20.6 µM
O=C(Nc1cccc(S(=O)(=O)N2CCCC2)c1)c1cc(S(=O)(=O)N2CCOCC2)ccc1F	inactive
COc1ccc(C(=O)O/N=C(\N)Cc2ccc(Cl)cc2)cc1OC	inconclusive: 29.1 µM [cytotoxic, single point]

4 entries from above, as labelled records.
CCN(C[C@H]1N[C@@](Cc2ccccc2)(C(=O)OC)[C@H]2C(=O)N(Cc3ccccc3)C(=O)[C@@H]12)S(=O)(=O)c1ccc(C(C)(C)C)cc1
  Potency: inactive
OC(CNCCc1ccc(Cl)cc1)COCc1ccco1 (stereo unspecified)
  Potency: inconclusive: 18.4 µM [cytotoxic, partial curve, poor fit]
O=C(NNc1ccccc1)c1ccc(Cl)c(Cl)c1
  Potency: active: 18.4 µM
Cc1cc(NCCC(C)C)n2nc(C)c(-c3ccccc3)c2n1
  Potency: active: 20.6 µM

Following part

Structure (SMILES)	Potency
COc1ccc(CN(C)C2c3ccccc3-c3ccccc32)cc1	inconclusive: 23.1 µM [cytotoxic, single point]
CC(O)CNc1nc2ccccc2n1-c1ncnc2sc3c(c12)CCC3 (stereo unspecified)	active: 13 µM
CN1[C@@H](COCc2ccccc2)C=CS1(=O)=O	inconclusive: 18.4 µM [cytotoxic, partial curve, poor fit]
COc1cccc(NC(=O)C2CCN(S(=O)(=O)c3ccc4c(c3)NC(=O)CO4)CC2)c1	inactive
CSc1ccccc1C(=O)Nc1cccc(C(C)=O)c1	inconclusive: 20.6 µM [cytotoxic, single point]
Cc1ccc(-c2cc(C(F)(F)F)n3nc(C(=O)NCCCn4ccnc4)cc3n2)cc1C	inactive
O=C1CC(/C=C/c2ccccn2)=Nc2ccccc2N1	inconclusive: 23.1 µM [cytotoxic, single point]
O=C(CO/N=C1\CCCc2nonc21)Nc1ccc(Br)cc1	inconclusive: 29.1 µM [cytotoxic, single point]
CCC(=O)Nc1cccc(-c2cnc3ccccc3n2)c1	inconclusive: 20.6 µM [cytotoxic, single point]
CCOc1ccc(N(c2nc(-c3ccc(OC)c(OC)c3)no2)c2nc(-c3ccc(OC)c(OC)c3)no2)cc1	inconclusive: 29.1 µM [rising, single point]
O=C(NCc1cccs1)C1CC(=O)N(c2ccc(Cl)cc2)C1 (stereo unspecified)	inconclusive: 20.6 µM [cytotoxic, partial curve]
C[N+](C)(CC#Cc1ccccc1)CC(=O)c1ccccc1	inconclusive: 20.6 µM [rising, single point]
Cc1nn(CC(=O)NCc2cc3ccccc3[nH]2)c(C)c1[N+](=O)[O-]	inconclusive: 18.4 µM [cytotoxic, single point]
O=C(Nc1nc2c(s1)CCCC2)C1CCCN1C(=O)c1cccs1 (stereo unspecified)	inactive
O=C(c1cccc(C(F)(F)F)c1)C1CCCN(Cc2cccc(OCCO)c2)C1 (stereo unspecified)	inconclusive: 18.4 µM [cytotoxic, single point]
Cc1ccc(C)c(S(=O)(=O)N(C)c2ccc(OC(=O)C3CCN(C(=O)c4ccc(F)cc4)CC3)cc2)c1	inconclusive: 29.1 µM [cytotoxic, single point]
O=C(COc1ccc2c(-c3ccccc3)cc(=O)oc2c1)NCc1cccs1	inactive
Cc1cc(C(=O)CN(Cc2ccc(F)cc2)S(=O)(=O)c2ccc3c(c2)OCCO3)c(C)n1C	inconclusive: 7.08 µM [cytotoxic, full curve]
Cc1cc(C)c(C)c(OCCOCCNCc2ccccc2)c1	active: 14.6 µM
O=C(NC1CCN(Cc2ccccc2)CC1)c1ccccc1OCc1ccccc1Cl	inconclusive: 3.66 µM [cytotoxic, full curve, poor fit]
O=C(NC1CC1)c1ccc(S(=O)(=O)NC2CCCCCC2)cc1	active: 16.4 µM
CCS(=O)(=O)c1ccc2oc(SCC(=O)N3CCCCC3)nc2c1	inconclusive: 20.6 µM [cytotoxic, single point]
COc1ccccc1C(=O)NCCC(=O)NC(C)CCc1ccccc1 (stereo unspecified)	inconclusive: 29.1 µM [cytotoxic, single point]
